Measurements reported in PubChem BioAssay AID743121 (NCATS, 2013)
Assay: 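Knock-downs that sensitise breast cancer cells to camptothecin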 (primary screen). Cell system: MDA-MB-231 cells, a human breast cancer line. Reagent: single siRNA against human genes, 20 nM siRNA (0.8 pmol per well). Duration: 120 h (drug added 48 h after transfection, read 72 h later). Conditions: camptothecin 20 nM (about EC30) for 72 h; vehicle 0.1% DMSO in parallel plates. Detection: 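Cell viability by ATP luminescence (CellTiter-Glo) as % of non-targeting siRNA wells, and the log2 ratio of viability without drug over viability with camptothecin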. Reading the numbers: log2 vehicle/camptothecin viability: higher = stronger sensitisation to camptothecin; viability with camptothecin: higher = more viable cells. Units: viability with camptothecin in % of control. Rule for the call: 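Active genes have an RSA gene-level p-value below 0.001, computed from the ratios of their separate siRNAs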.
Here is one part, drawn at random, of about 26,000 reagents. Of all reagents, 167 (0.63%) got an active call. 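Calls are per gene from RSA p-values that are not deposited; an individual active-marked siRNA can sensitise only weakly.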 The numbers tell different reagents against one gene apart. Further read-outs or replicates are left out here.

AREG #1
- log2 vehicle/camptothecin viability: 0.0952
- viability with camptothecin: 93.7
- activity call: inactive

AREG #2
- log2 vehicle/camptothecin viability: -0.241
- viability with camptothecin: 59.5
- activity call: inactive

AREG #3
- log2 vehicle/camptothecin viability: -0.124
- viability with camptothecin: 76.8
- activity call: inactive

AREG #4
- log2 vehicle/camptothecin viability: -0.0123
- viability with camptothecin: 59.2
- activity call: inactive

ADCY6 #1
- log2 vehicle/camptothecin viability: 0.0458
- viability with camptothecin: 85.9
- activity call: inactive

ADCY6 #2
- log2 vehicle/camptothecin viability: 0.11
- viability with camptothecin: 73.3
- activity call: inactive

ADCY6 #3
- log2 vehicle/camptothecin viability: -0.181
- viability with camptothecin: 78
- activity call: inactive

ADCY6 #4
- log2 vehicle/camptothecin viability: 0.0437
- viability with camptothecin: 80.6
- activity call: inactive

STX1A #1
- log2 vehicle/camptothecin viability: -0.0744
- viability with camptothecin: 86.1
- activity call: inactive

STX1A #2
- log2 vehicle/camptothecin viability: -0.0913
- viability with camptothecin: 94.6
- activity call: inactive

STX1A #3
- log2 vehicle/camptothecin viability: -0.197
- viability with camptothecin: 130
- activity call: inactive

STX1A #4
- log2 vehicle/camptothecin viability: -0.236
- viability with camptothecin: 61.6
- activity call: inactive

RPS6KB2 #1
- log2 vehicle/camptothecin viability: -0.322
- viability with camptothecin: 50.6
- activity call: inactive

RPS6KB2 #2
- log2 vehicle/camptothecin viability: -0.106
- viability with camptothecin: 97.3
- activity call: inactive

RPS6KB2 #3
- log2 vehicle/camptothecin viability: -0.171
- viability with camptothecin: 89.4
- activity call: inactive

RPS6KB2 #4
- log2 vehicle/camptothecin viability: -0.204
- viability with camptothecin: 114
- activity call: inactive

TAOK2 #1
- log2 vehicle/camptothecin viability: 0.176
- viability with camptothecin: 62.4
- activity call: inactive

TAOK2 #2
- log2 vehicle/camptothecin viability: 0.0807
- viability with camptothecin: 55.9
- activity call: inactive

TAOK2 #3
- log2 vehicle/camptothecin viability: 0.179
- viability with camptothecin: 57.1
- activity call: inactive

TAOK2 #4
- log2 vehicle/camptothecin viability: -0.413
- viability with camptothecin: 90.3
- activity call: inactive

CELA3A #1
- log2 vehicle/camptothecin viability: -0.632
- viability with camptothecin: 110
- activity call: inactive

CELA3A #2
- log2 vehicle/camptothecin viability: 0.499
- viability with camptothecin: 52.1
- activity call: inactive

CELA3A #3
- log2 vehicle/camptothecin viability: -0.352
- viability with camptothecin: 99.6
- activity call: inactive

CELA3A #4
- log2 vehicle/camptothecin viability: -0.0757
- viability with camptothecin: 62.8
- activity call: inactive

CELA3A #5
- log2 vehicle/camptothecin viability: -0.226
- viability with camptothecin: 49.2
- activity call: inactive

Individual results from above.
TAOK2 #2, log2 vehicle/camptothecin viability = 0.0807
Value of STX1A #2 under “log2 vehicle/camptothecin viability”: -0.0913
Under “activity call”, TAOK2 #4 has inactive
Under “viability with camptothecin”, AREG #4 reads 59.2
